{"source": "PubChem BioAssay AID1508600", "about": "(Functional Genomics Laboratory (NCATS/FGL), 2020)", "note": "Among all 53,000 sequences or so, about 3,700 (7%) were called active.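 The calls were made as follows: active = gene knockdowns whose robust z-score for IL-1 alpha signal is at least 2 or at most -2, so actives lie on both sides; inactive = the rest.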 The list shows a part of the results."}
{"assay": "Components of the Cytosolic LPS Sensing Pathway: Gene Identification via Genome-wide siRNA Screen;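 also: robust z of the log signal after scaling to non-targeting control siRNA wells of the plate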", "settings": "RAW264.7 macrophages, IL-1a HTRF, actives lie on both sides, screened at 100 nM (by protocol), cells primed 5 h with Pam3CSK4 first", "method_in_brief": "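RAW264.7 mouse macrophages reverse-transfected with single siRNAs (100 nM final) for 48h, primed with Pam3CSK4 for 5 hours, then transfected with LipidA for 24 hour. Supernatant IL-1a read by HTRF; values normalized to negative-control median, log-transformed robust z-scores.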"}
{"sequence": "CCUACAACGGGAAAACCGATT against Itprip", "z-score": "inactive: 0.211"}
{"sequence": "GCCAUUUGUUAGCAGUCACTT against Zfp960", "z-score": "inactive: -1.59"}
{"sequence": "GGUAUUAGCAUGUACCUUCTT against Olfr138", "z-score": "inactive: 1.11"}
{"sequence": "GCAGCUUAGUGAUUUGAAATT against Tex21", "z-score": "inactive: -1.24"}
{"sequence": "GGCGAAGAUUGAAAAAUGCTT against Ube3c", "z-score": "inactive: -0.407"}
{"sequence": "GGAUGACUCAAUAUUUGUCTT against Vmn1r46", "z-score": "inactive: 0.222"}
{"sequence": "GGAGAUGUAUAAGAAAGCUTT against Rpl5", "z-score": "inactive: 0.0956"}
{"sequence": "CCUAAGGCUGAAGCGGAGATT against Dusp9", "z-score": "inactive: 0.893"}
{"sequence": "CCGAUGCGCAAGUAAAAACTT against Tlx1", "z-score": "inactive: -0.712"}
{"sequence": "GGCAACCAGUUGAAAUAUUTT against Mbnl3", "z-score": "inactive: 1.05"}
{"sequence": "GGAGAUUGAAGAGUUUGACTT against Rangap1", "z-score": "inactive: -0.265"}
{"sequence": "GGAGCUGUGGGAGAAGAACTT against Prxl2a", "z-score": "inactive: -1.25"}
{"sequence": "GCUUAAAUUCUGUUCCAACTT against Ddx42", "z-score": "inactive: 0.0745"}
{"sequence": "GGGUAAAACAAGAAUAUCATT against Nop9", "z-score": "inactive: 0.246"}
{"sequence": "GGAGAUAAUUGGUUUACAGTT against Vmn1r23", "z-score": "inactive: -0.647"}
{"sequence": "GGUGCUCAAAGAAUGCAUUTT against Prkar1b", "z-score": "inactive: 0.367"}
{"sequence": "GGCCAUAUACUGGGCUAUATT against Skiv2l", "z-score": "inactive: -0.694"}
{"sequence": "GGCAUAUGCCAGUAUCGGUTT against Defb8", "z-score": "inactive: -0.595"}
{"sequence": "GGAAGCAGUUCAUGUUAAGTT against Dtx4", "z-score": "inactive: 1.12"}
{"sequence": "GGUGUAGCUGUGGUGGGUATT against Olfr360", "z-score": "inactive: -0.142"}
{"sequence": "GGGUUUUAGAAUGAAAUACTT against Emc6", "z-score": "active: 2.35"}
{"sequence": "GGAGCUAGAGAGAUCUGCATT against Crispld2", "z-score": "inactive: -1.61"}
{"sequence": "GCCAUAUCAACUCAGAUCATT against Ssh2", "z-score": "active: 5.04"}
{"sequence": "GGAUCCUGUUAAGAUUAUCTT against Phykpl", "z-score": "inactive: -0.0411"}
{"sequence": "CCAAAUGCGAUUUUAUAACTT against Trps1", "z-score": "inactive: 0.796"}
{"sequence": "GGGUAAGACAUACAACAUATT against Uevld", "z-score": "inactive: -0.00679"}
{"sequence": "GGUUGGUUUUGUGUUUGCUTT against Pitx1", "z-score": "inactive: -0.378"}
{"sequence": "GCUAAAGGUGUGGUCUUUGTT against Cyp2d13", "z-score": "inactive: 1.2"}
{"sequence": "GGAAACUUGUUCAUGAUUGTT against Olfr1023", "z-score": "inactive: -0.436"}
{"sequence": "GGGUCUGUUAUCUAAUCAGTT against Tk2", "z-score": "inactive: -0.541"}
{"sequence": "GCCCUUUACAAGGUUCUGUTT against Slc35f3", "z-score": "inactive: 0.107"}
{"sequence": "CCAUACCUCCAAGUACUUGTT against Itgal", "z-score": "inactive: -1.12"}
{"sequence": "CCAAGUUGUAUUAAAGUCUTT against Nfs1", "z-score": "inactive: -0.333"}
{"sequence": "GGAGUCUUCAGGAAGAAAGTT against Rars", "z-score": "inactive: -0.406"}
{"sequence": "GCUAAAGGACCUGAAAUGGTT against Gas8", "z-score": "inactive: 0.347"}
{"sequence": "CCCUAAGUCUCUAAUUGACTT against Serpina3h", "z-score": "inactive: -0.326"}
{"sequence": "GCAGGACAUCUAAAUCUCUTT against Fgfbp1", "z-score": "inactive: 0.509"}
{"sequence": "GCGUAUUUCCUUUCGGAGUTT against Exoc3", "z-score": "inactive: 0.116"}
{"sequence": "GGAAGAGGCGCACAUAACGTT against Ccdc125", "z-score": "inactive: -0.913"}
{"sequence": "GAAUCCCUUCGAGUACGACTT against Fxyd2", "z-score": "active: 3.17"}
{"sequence": "GGCUGAAUCACCAGAACAUTT against Ikbke", "z-score": "inactive: -0.644"}
{"sequence": "GCCAGUAUGACUAGUCGUGTT against Oprk1", "z-score": "inactive: -0.302"}
{"sequence": "GGUAGACGGAAUCUAUUUATT against Kcnj15", "z-score": "inactive: -1.31"}
{"sequence": "GGUGCCUGUCAUUAAAAUGTT against Lenep", "z-score": "inactive: 0.00768"}
{"sequence": "GGGUGAUUUCUUGAGUACATT against Exoc3l4", "z-score": "inactive: -0.821"}
{"sequence": "GGGUAUUUUGUACGAACACTT against Hacl1", "z-score": "inactive: 1.11"}
{"sequence": "GGUUCUGUCUAUUCUGCACTT against Slco4a1", "z-score": "inactive: 1"}
{"sequence": "CGGAUGAGAGGACAUGUAUTT against Tbc1d16", "z-score": "inactive: -0.624"}
{"sequence": "CGGUGAUAACAGACAUUAATT against Aldh8a1", "z-score": "inactive: -0.561"}
{"sequence": "GGCGGAAAAAGUGGAUAAUTT against Stx2", "z-score": "inactive: -0.628"}
{"sequence": "GGACGUGUACAUUGUCAAGTT against Unc5a", "z-score": "active: 2.07"}
{"sequence": "GUUCAUCCCGUAUCACCACTT against Cox6a2", "z-score": "inactive: -0.892"}
{"sequence": "GGAUUUGAAUUUGAGAGUUTT against Ubr7", "z-score": "inactive: -0.639"}
{"sequence": "GGAUGUCUGACACAAGUGUTT against Olfr390", "z-score": "active: 3.42"}
{"sequence": "GGCUCAUCAGAUGUAAACATT against Efcab6", "z-score": "active: -2.13"}
{"sequence": "GGAAUGAUAGAAAAUGGACTT against Gvin1", "z-score": "active: -2.16"}
{"sequence": "GCAGUUAAUGCCAACAGUCTT against Ep400", "z-score": "inactive: -1.59"}
{"sequence": "GCAGAACACCGCUGGAAGUTT against Pard3", "z-score": "active: 3.14"}
{"sequence": "CCUUGUAACUCAUUACAUCTT against Uqcc1", "z-score": "inactive: 0.903"}
{"sequence": "GGAACGAAGUCCCUAAAGATT against Csf3", "z-score": "inactive: -0.44"}
{"sequence": "CCAGAAAGAACCUGCCGUATT against Tdgf1", "z-score": "inactive: -1.33"}
{"sequence": "GCUUUGCAUAUGAUUCUACTT against Nt5c2", "z-score": "inactive: 1.86"}
{"sequence": "GGUUUGUCUCAGAGAUUGUTT against Aloxe3", "z-score": "inactive: 1.46"}
{"sequence": "GGUUAGAAGGAACUGGGCATT against Cyren", "z-score": "inactive: 1.16"}
{"sequence": "GCGAUGACCUUGUUCGGAUTT against F10", "z-score": "inactive: 0.93"}
{"sequence": "GCCAUAGAGUAUCAGCUGATT against Ttc30a1", "z-score": "inactive: 0.833"}
{"sequence": "GCUAAUGACGCGAUAGCCUTT against Gtf2b", "z-score": "inactive: 0.546"}
{"sequence": "GGAUGUAAAACCCUAUAAUTT against Zfp974", "z-score": "inactive: -0.0799"}
